The whole screen tested about 320,000 compounds, of which about 22,000 (6.9%) were called active. The shares of active, inactive and inconclusive entries below differ from those in the screen. Calls follow the shape of the dose curve; as a rule, active = well fitted inhibition curve with a large enough effect; inconclusive = small, poorly fitted or top-dose-only effect, or another doubt; inactive = no such curve, though single readings can be large or run the other way. A potency beside an inconclusive call is a rough fit, not a confirmed value.
experiment: Primary qHTS for delayed death inhibitors of the malarial parasite plastid, 96 hour incubation; conditions: P. falciparum luciferase reporter growth; series mostly up to 28.7 µM; activity change, negative = inhibition: at the top concentration
Summary of the method: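 Luminescence readout: decreased luciferase signal marks inhibited growth of reporter-expressing P. falciparum in infected red cells (2% hematocrit, 0.05% parasitemia final), exposed to compound two generations (96 h, 37 C, 5% CO2).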
% is scaled to controls: 0 for no effect and ±100 for the full control effect; potency is read from the fitted curve at half-maximal effect.

SMILES	activity change, negative = inhibition	Potency
Cc1csc2ncnc(N3CCN(C(=S)Nc4ccc(C(F)(F)F)cc4)CC3)c12	inactive: 34.9%	
CCOc1ccc(OCC)c(-c2c(=O)n(OCc3ccc(Cl)cc3)c3ccccc3[n+]2[O-])c1		inconclusive: 0.131 µM [inhibitor, full curve, poor fit]
COc1ccc(CCNC(=O)COc2ccc(S(=O)(=O)NC(C)C)cc2Cl)cc1OC		inconclusive: 13.1 µM [inhibitor, single point]
Cc1ccc(NC(=O)c2cncc(Br)c2)c(O)c1		inconclusive: 13.1 µM [inhibitor, single point]
Cc1noc(C)c1COc1ccccc1C(=O)N1CCN(c2cccc(C(F)(F)F)c2)CC1		inconclusive: 18.5 µM [inhibitor, single point]
N=c1cc(C2(O)CCCCC2)n2c(nc3ccccc32)s1		inconclusive: 1.04 µM [inhibitor, partial curve, poor fit]
CCN(CC)S(=O)(=O)c1ccc(C(=O)NCC(c2ccc(OC)cc2)N2CCOCC2)cc1 (centres undefined)		inconclusive: 11.7 µM [inhibitor, single point]
Fc1ccc(Cn2cnc3ccccc32)cc1	inactive: 67.4%	
CCc1nnc(SCC(=O)Nc2ccccc2)nc1CC		inconclusive: 14.7 µM [inhibitor, partial curve, poor fit]
Cc1nn(C)c(C)c1S(=O)(=O)N1CCCC(C(=O)NC2CCCCCC2)C1 (centres undefined)	inactive: -2.37%	
CCOC(=O)C1=C(C)NC(=O)C(C#N)C1c1ccco1 (centres undefined)		inconclusive: 0.415 µM [inhibitor, partial curve, poor fit]
O=C(COc1cccc(Br)c1)N/N=C/C(=O)c1ccccc1		inconclusive: 13.1 µM [inhibitor, partial curve, poor fit]
COc1ccccc1NC(=O)c1sc2ncn(Cc3cccc4ccccc34)c(=O)c2c1C		active: 9.28 µM
Cc1[nH]n(-c2ccccc2)c(=O)c1/C=N/NC(=O)COc1ccccc1[N+](=O)[O-]		inconclusive: 18.5 µM [inhibitor, single point]
O=C(NC(C(=O)N/N=C/c1cccnc1)c1n[nH]c(=O)c2ccccc12)c1ccccc1 (centres undefined)		inconclusive: 18.5 µM [inhibitor, single point]
CCOC(=O)c1ccccc1CN1C(=O)c2ccccc2S1(=O)=O	inactive: -21.7%	
Cc1cc(C)c(S(=O)(=O)N(C)CC(=O)NCc2ccccn2)c(C)c1		inconclusive: 2.33 µM [inhibitor, full curve, poor fit]
Cc1ccccc1NC(=O)Cn1cnc2c(oc3nc4c(cc32)CCCC4)c1=O		inconclusive: 9.28 µM [inhibitor, single point]
O=C(O)/C=C\C(=O)Nc1ccccc1N1CCN(c2ccccc2)CC1		inconclusive: 13.1 µM [inhibitor, single point]
N#Cc1ccc(CSc2ncnc3c2cnn3Cc2ccccc2)cc1		active: 7.38 µM
COC(=O)/C=C/C(=O)Nc1cccc(C(F)(F)F)c1		inconclusive: 9.28 µM [inhibitor, partial curve]
COc1ccc(/C=N\NC(=O)COc2ccc(Cl)cc2Cl)c(C(=O)O)c1OC		inconclusive: 18.5 µM [inhibitor, single point]
C[C@]12C(=O)N(c3ccccc3)C(=O)N1[C@@H]1c3ccccc3OC[C@@H]1[C@H]2c1ccccc1	inactive: 3.62%	

SMILES	activity change, negative = inhibition	Potency
O=C(NC1CCN(Cc2ccccc2)CC1)c1cc(S(=O)(=O)Nc2ccc(F)cc2)ccc1Cl		active: 9.28 µM
Cc1cccc(-c2onc3ccc(C4(C)OCCO4)cc23)c1		inconclusive: 11.7 µM [inhibitor, single point]
C=C(C)COc1cc2oc(=O)c(CC(=O)N3C[C@H]4C[C@@H](C3)c3cccc(=O)n3C4)c(C)c2cc1Cl		active: 10.4 µM
COc1ccc(O[C@H]2C=C[C@@H](c3ccccc3)O[C@@H]2COC(=O)CCC(C)=NO[C@@H]2O[C@H](COC(C)=O)[C@@H](OC(C)=O)[C@H](OC(C)=O)[C@H]2OC(C)=O)cc1		inconclusive: 16.5 µM [inhibitor, single point]
CCOC(=O)c1sc2ccccc2c1NC(=O)c1coc2ccccc2c1=O	inactive: -1.61%	
C[C@@H](NC(=O)[C@@H]1Cc2ccccc2CN1)C(=O)NC1CCCCC1	inactive: 10.4%	
CC(C)NC(=O)NC(=O)COC(=O)C1CCCN1C(=O)c1cccs1 (centres undefined)	inactive: 9.68%	
CCOC(=O)c1c(C)[nH]c(C(=O)COC(=O)c2ccncc2)c1C	inactive: 17.1%	
O=C(c1ccccc1)c1cc2ccccc2o1	inactive: 19.6%	
CC(C)(C)C(=O)N1CCN(c2ccc(Cl)cc2[N+](=O)[O-])CC1	inactive: 36.3%	
CCc1cc(C(=O)N2CCN(C(=O)c3ccccc3)CC2)sc1C		inconclusive: 11.7 µM [inhibitor, partial curve, poor fit]
O=C(O)CCCn1cc(NC(=O)COc2cc(F)ccc2[N+](=O)[O-])cn1		inconclusive: 9.28 µM [inhibitor, single point]
CC(C)NC(=O)[C@H]1N2C(=O)c3ccccc3C2SC1(C)C (some centres undefined)	inactive: 11.7%	
O=C(OCc1nc2scc(-c3ccccc3)c2c(=O)[nH]1)c1cc(Cl)ccc1[N+](=O)[O-]		inconclusive: 14.7 µM [inhibitor, single point]
Cc1cc(C)c(NC(=O)c2cccc(NC(=O)c3ccco3)c2)c(C)c1		inconclusive: 13.1 µM [inhibitor, single point]
Cc1nc(N)sc1C(=O)OCC(C)C	inactive: 21.7%	
COc1ccc(N2CCN(C(CNC(=O)C(=O)NCc3ccc4c(c3)OCO4)c3ccco3)CC2)cc1 (centres undefined)		inconclusive: 0.0657 µM [inhibitor, full curve, poor fit]
COCCCNCCCOc1ccc(C)cc1Br	inactive: -1.03%	
N/C(=N\OC(=O)CC1CCCCC1)c1ccccc1		inconclusive: 0.0033 µM [inhibitor, full curve, poor fit]
NS(=O)(=O)c1ccc(CCNC(=O)COC(=O)CN2C(=O)C3CCCCC3C2=O)cc1 (centres undefined)	inactive: 5.05%	
CCOC(=O)C1CCCN(C/C(O)=C(\C#N)c2nc(-c3ccccc3)cs2)C1 (centres undefined)		active: 13.1 µM
Cc1ccn2c(-c3csc(NCc4ccco4)n3)c(C)nc2c1	inactive: -5.09%	
Cn1cc(SCC(=O)Nc2ccc3c(c2)OCO3)c2ccccc21		inconclusive: 11.7 µM [inhibitor, single point]

Structures listed so far that contain a COOH group, in the order listed:
SMILES	activity change, negative = inhibition	Potency
O=C(O)/C=C\C(=O)Nc1ccccc1N1CCN(c2ccccc2)CC1		inconclusive: 13.1 µM [inhibitor, single point]
COc1ccc(/C=N\NC(=O)COc2ccc(Cl)cc2Cl)c(C(=O)O)c1OC		inconclusive: 18.5 µM [inhibitor, single point]
O=C(O)CCCn1cc(NC(=O)COc2cc(F)ccc2[N+](=O)[O-])cn1		inconclusive: 9.28 µM [inhibitor, single point]

Later entries:

SMILES	activity change, negative = inhibition	Potency
CN1C(=O)c2ccc(C(=O)Nc3cccnc3)cc2C1=O		inconclusive: 18.5 µM [inhibitor, single point]
Cc1ccc(C(=O)Nc2sc3c(c2C(=O)NCc2ccco2)CCCC3)cc1		inconclusive: 18.5 µM [inhibitor, partial curve, poor fit]
CC(=O)Nc1ccc(S(=O)(=O)Nc2cc([N+](=O)[O-])ccc2C)cc1		inconclusive: 3.29 µM [inhibitor, full curve]
CCn1c(=O)c2cc(C(=O)NCc3cccs3)sc2c2ccccc21		active: 2.33 µM
O=C(CNS(=O)(=O)c1ccc(Br)cc1Cl)OCC(=O)N1CCCC1=O		inconclusive: 9.28 µM [inhibitor, single point]
CC/C(=N\NC(=O)c1nnn(-c2nonc2N)c1-c1cccc(OC)c1)c1ccc(C)cc1		inconclusive: 10.4 µM [inhibitor, partial curve, poor fit]
Cc1ccnc(N/C=C(/NC(=O)c2ccccc2)C(=O)NN)n1	inactive: -4.52%	
Cc1ccc(C(=O)C2CCN(CC(=O)NCc3ccc(F)cc3)CC2)cc1		inconclusive: 5.86 µM [inhibitor, partial curve]
COc1ccc(Cc2nnc(Nc3ccc(C)cc3)o2)cc1OC		inconclusive: 11.7 µM [inhibitor, partial curve, poor fit]
O=C1CN(S(=O)(=O)c2ccccc2)c2ccccc2N1		inconclusive: 16.5 µM [inhibitor, single point]
Cc1nc2ccccc2c2oc(C(=O)N3CCC(N4CCCCC4)CC3)cc12	inactive: -14.5%	
Cc1cc(CN(C)C(=O)CC2C(=O)NCCN2Cc2ccc(F)c(F)c2)on1 (centres undefined)	inactive: 23.5%	
Cc1ccc(S(=O)(=O)N2CCCCC2)cc1NC(=O)c1ccc(Br)o1		inconclusive: 11.7 µM [inhibitor, partial curve, poor fit]
CCCCCC(=O)NNC1=NCC(Cc2ccccc2)S1 (centres undefined)	inactive: 6.63%	
O=C(NCc1ccc2c(c1)OCO2)c1ccc(Cl)c(S(=O)(=O)NCc2ccccc2)c1		inconclusive: 10.4 µM [inhibitor, single point]
CCOc1ccc(/C=C/C(=O)Oc2ccccc2)cc1		inconclusive: 18.5 µM [inhibitor, single point]
NC(=O)CSc1nnc(CSc2ncccn2)n1-c1ccccc1		active: 13.1 µM
Cc1ccc(C)c2[nH]c(=O)c(CCNC(=O)Cc3cccs3)cc12	inactive: -49.6%	
COc1ccc(C(CC(=O)O)NC(=O)C(c2ccccc2)c2ccccc2)cc1 (centres undefined)		inconclusive: 1.85 µM [inhibitor, full curve]
Cc1noc(C)c1COc1cccc(C(=O)OCCOc2ccc(F)cc2)c1		active: 13.1 µM
NC(=O)c1nsc(C(=O)N(c2ccccc2)C(C(=O)NCC2CCCO2)c2cccs2)c1N (centres undefined)		inconclusive: 2.08 µM [inhibitor, partial curve, poor fit]
CC(C)(NC(=O)NC(CO)c1ccccc1)c1cccc(C(C)(C)NC(=O)NC(CO)c2ccccc2)c1 (centres undefined)		inconclusive: 2.94 µM [inhibitor, single point]
O=C(CSc1nnc(-c2ccncc2)n1-c1ccc(F)cc1)NC(=O)NCc1ccco1		inconclusive: 13.1 µM [inhibitor, single point]
